Laboratory results: PMC9965400
No constants are given. Whether binding was seen depends on the method and setting. In cells and extracts the contact can be indirect. Some results given as binding are weak or reduced against the parent protein; the word gives no strength.

Protein sequences, listed by entry. Tags and fused reporters are not part of them.
UniProt P26196: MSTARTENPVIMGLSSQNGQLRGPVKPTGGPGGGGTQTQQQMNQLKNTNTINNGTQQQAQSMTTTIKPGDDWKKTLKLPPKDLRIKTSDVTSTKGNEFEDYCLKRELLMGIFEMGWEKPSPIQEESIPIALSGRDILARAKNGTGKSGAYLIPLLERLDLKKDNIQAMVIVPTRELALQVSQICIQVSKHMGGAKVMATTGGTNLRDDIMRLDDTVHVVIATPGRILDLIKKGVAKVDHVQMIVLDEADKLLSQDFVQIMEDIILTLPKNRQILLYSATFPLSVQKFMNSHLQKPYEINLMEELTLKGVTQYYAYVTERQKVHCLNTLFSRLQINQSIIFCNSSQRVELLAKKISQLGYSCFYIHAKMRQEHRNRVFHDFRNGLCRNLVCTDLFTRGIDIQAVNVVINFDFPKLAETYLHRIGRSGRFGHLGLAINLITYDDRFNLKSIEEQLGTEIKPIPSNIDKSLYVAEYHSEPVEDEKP

B1: ADAR1 (protein, UniProt P55265-5 1-931)
chain: MAEIKEKICDYLFNVSDSSALNLAKNIGLTKARDINAVLIDMERQGDVYRQGTTPPIWHLTDKKRERMQIKRNTNSVPETAPAAIPETKRNAEFLTCNIPTSNASNNMVTTEKVENGQEPVIKLENRQEARPEPARLKPPVHYNGPSKAGYVDFENGQWATDDIPDDLNSIRAAPGEFRAIMEMPSFYSHGLPRCSPYKKLTECQLKNPISGLLEYAQFASQTCEFNMIEQSGPPHEPRFKFQVVINGREFPPAEAGSKKVAKQDAAMKAMTILLEEAKAKDSGKSEESSHYSTEKESEKTAESQTPTPSATSFFSGKSPVTTLLECMHKLGNSCEFRLLSKEGPAHEPKFQYCVAVGAQTFPSVSAPSKKVAKQMAAEEAMKALHGEATNSMASDNQPEGMISESLDNLESMMPNKVRKIGELVRYLNTNPVGGLLEYARSHGFAAEFKLVDQSGPPHEPKFVYQAKVGGRWFPAVCAHSKKQGKQEAADAALRVLIGENEKAERMGFTEVTPVTGASLRRTMLLLSRSPEAQPKTLPLTGSTFHDQIAMLSHRCFNTLTNSFQPSLLGRKILAAIIMKKDSEDMGVVVSLGTGNRCVKGDSLSLKGETVNDCHAEIISRRGFIRFLYSELMKYNSQTAKDSIFEPAKGGEKLQIKKTVSFHLYISTAPCGDGALFDKSCSDRAMESTESRHYPVFENPKQGKLRTKVENGEGTIPVESSDIVPTWDGIRLGERLRTMSCSDKILRWNVLGLQGALLTHFLQPIYLKSVTLGYLFSQGHLTRAICCRVTRDGSAFEDGLRHPFIVNHPKVGRVSIYDSKRQSGKTKETSVNWCLADGYDLEILDGTRGTVDGPRNELSRVSKKNIFLLFKKLCSFRYRRDLLRLSYGEAKKAARDYETAKNYFKKGLKDMGYGNWISKPQEEKNFYLCPV

Biological target: DDX6 (human (endogenous in HEK293T)) (UniProt P26196)
Assay: co-IP; anti-DDX6 (Bethyl A300-460A) or control rabbit IgG with Dynabeads, 4 °C overnight, nuclear extracts (Gagnon-Li method) of HEK293T cells overexpressing ADAR1 or ADAR2; with or without RNase A; Western blot with ADAR1, ADAR2 and DDX6 antibodies

| Molecule | binding |
| --- | --- |
| ADAR2 (from UniProt P78563 1-741) | binds |
| B1 | binds |
